Laboratory results reported in the supplement of paper PMC12067093, “Discovery and optimisation of a covalent ligand for TRIM25 and its application to targeted protein ubiquitination” (Chemical Science, 2025).
Some of the results follow.

The chains behind the UniProt entries cited, without tags or fusion partners. Where a name states a change or a piece, a line headed by the entry shows the natural chain unless it says otherwise.
UniProt P50851: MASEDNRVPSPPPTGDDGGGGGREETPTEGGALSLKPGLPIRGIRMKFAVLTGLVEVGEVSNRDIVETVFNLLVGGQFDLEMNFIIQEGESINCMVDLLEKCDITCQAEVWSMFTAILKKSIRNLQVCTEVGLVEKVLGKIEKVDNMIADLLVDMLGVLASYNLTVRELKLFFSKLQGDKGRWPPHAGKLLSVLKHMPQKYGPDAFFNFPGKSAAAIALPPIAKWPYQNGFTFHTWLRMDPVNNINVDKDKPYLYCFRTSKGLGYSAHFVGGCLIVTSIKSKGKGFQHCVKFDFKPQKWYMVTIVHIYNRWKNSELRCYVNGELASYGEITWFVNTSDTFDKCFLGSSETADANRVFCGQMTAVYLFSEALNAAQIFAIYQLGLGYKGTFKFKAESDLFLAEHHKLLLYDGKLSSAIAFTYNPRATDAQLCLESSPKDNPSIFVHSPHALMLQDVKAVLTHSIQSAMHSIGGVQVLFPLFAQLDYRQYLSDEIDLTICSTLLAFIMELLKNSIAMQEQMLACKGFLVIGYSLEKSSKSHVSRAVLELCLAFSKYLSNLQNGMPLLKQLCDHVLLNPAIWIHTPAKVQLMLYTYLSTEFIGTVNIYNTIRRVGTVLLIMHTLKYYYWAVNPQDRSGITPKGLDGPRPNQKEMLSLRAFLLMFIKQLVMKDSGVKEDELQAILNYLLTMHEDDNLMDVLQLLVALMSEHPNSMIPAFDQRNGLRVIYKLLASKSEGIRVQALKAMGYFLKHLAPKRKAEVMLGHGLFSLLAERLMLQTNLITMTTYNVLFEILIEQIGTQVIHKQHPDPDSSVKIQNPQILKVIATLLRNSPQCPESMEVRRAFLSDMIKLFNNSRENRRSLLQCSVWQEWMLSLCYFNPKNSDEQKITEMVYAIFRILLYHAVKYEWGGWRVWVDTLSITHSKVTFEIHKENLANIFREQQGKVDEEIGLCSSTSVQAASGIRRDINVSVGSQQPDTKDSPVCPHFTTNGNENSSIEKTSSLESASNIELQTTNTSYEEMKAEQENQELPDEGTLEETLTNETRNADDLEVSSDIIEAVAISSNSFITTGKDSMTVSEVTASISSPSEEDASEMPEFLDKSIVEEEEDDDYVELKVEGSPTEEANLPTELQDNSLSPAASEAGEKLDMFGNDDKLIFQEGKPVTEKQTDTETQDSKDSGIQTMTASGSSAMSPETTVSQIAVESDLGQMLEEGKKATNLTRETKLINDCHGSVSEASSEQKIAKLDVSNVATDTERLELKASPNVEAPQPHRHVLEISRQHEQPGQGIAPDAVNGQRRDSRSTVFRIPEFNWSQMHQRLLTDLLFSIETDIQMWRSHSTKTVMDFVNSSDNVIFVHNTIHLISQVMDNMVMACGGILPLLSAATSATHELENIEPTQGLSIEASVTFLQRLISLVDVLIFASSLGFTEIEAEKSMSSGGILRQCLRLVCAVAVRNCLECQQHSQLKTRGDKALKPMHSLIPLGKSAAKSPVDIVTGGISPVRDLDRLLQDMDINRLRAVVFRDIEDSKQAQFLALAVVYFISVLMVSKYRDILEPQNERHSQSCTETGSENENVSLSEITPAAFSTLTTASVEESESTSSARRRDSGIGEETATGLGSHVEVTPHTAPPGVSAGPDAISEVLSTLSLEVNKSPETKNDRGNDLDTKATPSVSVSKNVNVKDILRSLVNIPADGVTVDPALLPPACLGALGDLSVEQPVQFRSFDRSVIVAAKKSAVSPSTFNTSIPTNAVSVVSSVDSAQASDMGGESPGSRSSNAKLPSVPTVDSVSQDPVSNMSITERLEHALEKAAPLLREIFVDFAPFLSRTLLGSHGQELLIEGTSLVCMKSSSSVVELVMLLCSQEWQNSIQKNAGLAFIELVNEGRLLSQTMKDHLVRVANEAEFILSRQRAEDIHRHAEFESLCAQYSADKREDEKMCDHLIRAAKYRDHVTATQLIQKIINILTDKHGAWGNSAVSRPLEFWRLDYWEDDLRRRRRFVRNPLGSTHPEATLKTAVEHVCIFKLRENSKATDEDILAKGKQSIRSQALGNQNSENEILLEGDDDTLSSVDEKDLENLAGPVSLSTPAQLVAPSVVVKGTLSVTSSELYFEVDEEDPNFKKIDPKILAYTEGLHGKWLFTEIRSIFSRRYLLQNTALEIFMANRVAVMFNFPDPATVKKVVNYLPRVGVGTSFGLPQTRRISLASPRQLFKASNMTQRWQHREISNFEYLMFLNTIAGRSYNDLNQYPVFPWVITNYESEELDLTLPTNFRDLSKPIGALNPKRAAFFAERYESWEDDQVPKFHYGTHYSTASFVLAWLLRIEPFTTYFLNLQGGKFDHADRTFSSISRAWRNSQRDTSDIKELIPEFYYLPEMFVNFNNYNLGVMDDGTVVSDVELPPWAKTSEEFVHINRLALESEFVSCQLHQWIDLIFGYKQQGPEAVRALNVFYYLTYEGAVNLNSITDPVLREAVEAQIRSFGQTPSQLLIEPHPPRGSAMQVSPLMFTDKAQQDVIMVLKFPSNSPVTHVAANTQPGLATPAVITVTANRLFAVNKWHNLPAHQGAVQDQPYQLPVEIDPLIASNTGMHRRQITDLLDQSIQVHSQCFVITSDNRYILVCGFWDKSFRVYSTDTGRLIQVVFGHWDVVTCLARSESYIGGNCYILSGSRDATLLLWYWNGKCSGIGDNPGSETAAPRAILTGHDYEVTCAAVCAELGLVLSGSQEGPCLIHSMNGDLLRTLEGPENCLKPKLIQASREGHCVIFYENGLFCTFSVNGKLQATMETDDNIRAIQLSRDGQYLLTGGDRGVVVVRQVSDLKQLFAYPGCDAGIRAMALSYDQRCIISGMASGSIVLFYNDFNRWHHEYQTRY
UniProt Q15345: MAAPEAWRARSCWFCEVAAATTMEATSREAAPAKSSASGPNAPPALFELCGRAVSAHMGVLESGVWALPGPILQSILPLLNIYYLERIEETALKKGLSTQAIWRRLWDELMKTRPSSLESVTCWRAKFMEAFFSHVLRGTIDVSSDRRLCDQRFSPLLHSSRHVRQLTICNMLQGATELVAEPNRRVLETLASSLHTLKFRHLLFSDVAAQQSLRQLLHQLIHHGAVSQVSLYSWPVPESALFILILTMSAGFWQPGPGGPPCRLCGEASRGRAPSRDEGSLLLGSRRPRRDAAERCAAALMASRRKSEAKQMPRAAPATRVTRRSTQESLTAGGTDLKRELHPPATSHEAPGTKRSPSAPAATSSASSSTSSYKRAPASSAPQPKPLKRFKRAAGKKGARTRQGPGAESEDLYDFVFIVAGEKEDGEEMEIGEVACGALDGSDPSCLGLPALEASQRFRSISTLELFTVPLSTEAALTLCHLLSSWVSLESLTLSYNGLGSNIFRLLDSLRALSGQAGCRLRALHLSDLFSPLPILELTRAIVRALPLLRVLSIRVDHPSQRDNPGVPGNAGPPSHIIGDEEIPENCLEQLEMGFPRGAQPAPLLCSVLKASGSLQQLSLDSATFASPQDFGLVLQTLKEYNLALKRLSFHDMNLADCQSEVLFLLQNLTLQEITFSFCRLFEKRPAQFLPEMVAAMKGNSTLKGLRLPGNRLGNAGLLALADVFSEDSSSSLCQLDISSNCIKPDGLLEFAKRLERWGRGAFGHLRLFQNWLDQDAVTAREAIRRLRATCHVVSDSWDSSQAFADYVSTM
UniProt Q9UK45: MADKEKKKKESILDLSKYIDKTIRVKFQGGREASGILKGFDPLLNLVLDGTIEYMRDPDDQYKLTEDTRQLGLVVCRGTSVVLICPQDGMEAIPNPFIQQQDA
UniProt P09382, whole entry, looked up: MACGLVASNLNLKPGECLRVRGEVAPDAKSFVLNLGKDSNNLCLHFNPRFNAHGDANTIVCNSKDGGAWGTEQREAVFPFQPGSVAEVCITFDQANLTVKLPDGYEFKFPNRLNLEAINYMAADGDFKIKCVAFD
UniProt P49916: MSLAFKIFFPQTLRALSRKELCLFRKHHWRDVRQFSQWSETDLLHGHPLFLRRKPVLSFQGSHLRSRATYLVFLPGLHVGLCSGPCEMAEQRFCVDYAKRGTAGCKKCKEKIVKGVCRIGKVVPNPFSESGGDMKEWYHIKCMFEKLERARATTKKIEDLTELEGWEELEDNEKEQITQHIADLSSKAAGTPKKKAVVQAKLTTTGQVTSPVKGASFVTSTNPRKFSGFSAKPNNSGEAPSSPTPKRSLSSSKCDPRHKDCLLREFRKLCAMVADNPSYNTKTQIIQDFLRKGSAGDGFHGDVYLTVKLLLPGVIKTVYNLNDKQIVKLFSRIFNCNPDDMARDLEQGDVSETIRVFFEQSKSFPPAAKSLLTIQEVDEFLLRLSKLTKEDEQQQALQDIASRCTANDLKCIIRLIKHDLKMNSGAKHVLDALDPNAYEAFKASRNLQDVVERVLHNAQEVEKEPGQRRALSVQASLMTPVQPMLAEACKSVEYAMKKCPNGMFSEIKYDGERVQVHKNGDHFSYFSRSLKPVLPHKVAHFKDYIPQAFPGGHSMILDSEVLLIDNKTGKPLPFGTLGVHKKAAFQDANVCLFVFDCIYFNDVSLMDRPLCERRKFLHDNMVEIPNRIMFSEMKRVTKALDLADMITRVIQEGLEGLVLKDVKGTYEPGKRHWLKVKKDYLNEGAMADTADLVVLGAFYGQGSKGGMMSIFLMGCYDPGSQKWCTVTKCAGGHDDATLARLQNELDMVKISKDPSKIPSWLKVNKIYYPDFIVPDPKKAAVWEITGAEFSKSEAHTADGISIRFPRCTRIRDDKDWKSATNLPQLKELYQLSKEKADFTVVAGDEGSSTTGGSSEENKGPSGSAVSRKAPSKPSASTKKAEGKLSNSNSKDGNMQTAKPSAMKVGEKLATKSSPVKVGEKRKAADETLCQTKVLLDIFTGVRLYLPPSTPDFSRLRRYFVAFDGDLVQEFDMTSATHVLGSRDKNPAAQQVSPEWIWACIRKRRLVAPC
UniProt O75427: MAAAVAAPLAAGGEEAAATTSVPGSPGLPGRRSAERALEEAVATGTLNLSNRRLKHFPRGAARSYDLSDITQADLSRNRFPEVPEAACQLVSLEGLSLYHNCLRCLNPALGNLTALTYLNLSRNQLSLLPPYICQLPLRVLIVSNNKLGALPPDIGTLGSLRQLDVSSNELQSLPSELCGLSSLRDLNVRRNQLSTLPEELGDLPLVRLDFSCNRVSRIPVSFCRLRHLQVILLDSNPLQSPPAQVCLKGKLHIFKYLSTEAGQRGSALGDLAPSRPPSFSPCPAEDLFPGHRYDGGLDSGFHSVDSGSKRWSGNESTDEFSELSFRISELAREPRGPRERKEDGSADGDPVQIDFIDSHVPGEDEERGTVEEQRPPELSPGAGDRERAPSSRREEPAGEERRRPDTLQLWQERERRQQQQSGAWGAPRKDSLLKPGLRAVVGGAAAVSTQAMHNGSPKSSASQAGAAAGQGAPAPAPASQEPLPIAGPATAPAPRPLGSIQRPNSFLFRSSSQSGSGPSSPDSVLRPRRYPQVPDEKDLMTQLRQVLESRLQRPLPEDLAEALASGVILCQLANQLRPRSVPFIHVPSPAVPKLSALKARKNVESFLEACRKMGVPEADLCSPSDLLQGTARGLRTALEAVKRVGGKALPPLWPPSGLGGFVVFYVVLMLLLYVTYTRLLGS
UniProt P36776: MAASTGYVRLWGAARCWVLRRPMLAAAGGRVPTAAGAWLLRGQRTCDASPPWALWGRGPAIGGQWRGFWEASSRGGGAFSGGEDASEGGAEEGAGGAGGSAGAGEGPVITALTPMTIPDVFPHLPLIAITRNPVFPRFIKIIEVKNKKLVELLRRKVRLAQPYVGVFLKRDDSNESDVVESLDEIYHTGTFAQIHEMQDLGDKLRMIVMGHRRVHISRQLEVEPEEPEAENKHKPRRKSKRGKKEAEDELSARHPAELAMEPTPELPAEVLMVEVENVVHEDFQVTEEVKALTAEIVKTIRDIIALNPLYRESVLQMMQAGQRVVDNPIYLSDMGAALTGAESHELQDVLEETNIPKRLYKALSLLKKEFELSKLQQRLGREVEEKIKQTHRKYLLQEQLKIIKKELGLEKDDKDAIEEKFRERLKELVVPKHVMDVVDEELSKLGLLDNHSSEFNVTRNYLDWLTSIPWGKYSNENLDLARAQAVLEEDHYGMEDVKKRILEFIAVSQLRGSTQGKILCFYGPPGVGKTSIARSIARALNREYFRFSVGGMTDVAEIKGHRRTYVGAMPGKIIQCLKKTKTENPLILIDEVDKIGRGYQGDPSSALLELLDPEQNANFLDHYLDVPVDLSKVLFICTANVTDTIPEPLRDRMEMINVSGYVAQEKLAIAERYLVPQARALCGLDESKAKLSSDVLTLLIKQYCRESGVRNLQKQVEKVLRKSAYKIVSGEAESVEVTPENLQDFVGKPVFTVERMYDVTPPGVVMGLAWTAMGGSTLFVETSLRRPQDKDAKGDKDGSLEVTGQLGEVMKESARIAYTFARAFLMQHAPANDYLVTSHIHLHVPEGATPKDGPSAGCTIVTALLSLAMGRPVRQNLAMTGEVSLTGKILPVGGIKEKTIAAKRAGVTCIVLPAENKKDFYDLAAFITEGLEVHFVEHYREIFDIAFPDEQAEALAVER

Compound: Cc1cc(ccc1-c1ccccc1)C(=O)N1CCCN(CC1)C(=O)CCl [compound 10]
Experiment: probe-labelled cysteine peptide fold change vs DMSO (competition) (log2 fold change); higher = less target engagement (more negative = stronger competition)
Details: THP-1, incubation time: 4 h
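Further: competitive profiling in live THP-1 cells: cysteine peptides tagged with an iodoacetamide desthiobiotin (IA-DTB) probe, intensity after compound treatment relative to DMSO-treated cells.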

Target | probe-labelled cysteine peptide fold change (10 µM) | probe-labelled cysteine peptide fold change (50 µM)
LRBA_P50851_832_NSPQCPESMEVR (UniProt P50851) | -0.223 | 0.0622
LRRC57_Q8N9N7_128_TLSLSGNQLGALPPQLCSLR (UniProt Q8N9N7) | 0.199 | 0.297
LRRC8C_Q8TDW0_774_GNHFEILPPELGDCR (UniProt Q8TDW0) | 0.0341 | 0.337
LRPPRC_P42704_571_YCQEPR (UniProt P42704) | 0.261 | 0.6
LSM4_Q9Y4Z0_32_NGETYNGHLVSCDNWMNINLR (UniProt Q9Y4Z0) | -0.0366 | -0.127
LRPPRC_P42704_130_SCGSLLPELKLEER (UniProt P42704) | -0.0916 | -0.524
LSM12_Q3MHD2_20_TCQEQR (UniProt Q3MHD2) | 0.442 | 0.902
LMNB2_Q03252_212_CQSLQEELDFR (UniProt Q03252) | 0.196 | 0.443
LPXN_O60711_358_FHPEHFVCAFCLTQLSK (UniProt O60711) | -0.06 | -0.732
LILRB1_Q8NHL6_49_CQGGQETQEYR (UniProt Q8NHL6) | -0.0272 | 0.248
LRRC14_Q15048_221_NTVALLQLLDAGCLR (UniProt Q15048) | 0.0115 | -0.0233
LRPPRC_P42704_952_LFECDRDQMYYNLLK (UniProt P42704) | 0.0596 | 0.0169
LIG4_P49917_20_AASQTSQTVASHVPFADLCSTLER (UniProt P49917) | -0.112 | -0.26
LTA4H_P09960_136+141_EHPYLFSQCQAIHCR (UniProt P09960) | 0.0569 | -0.0361
LPCAT1_Q8NF37_216_TCLITFKPGAFIPGAPVQPVVLR (UniProt Q8NF37) | 0.0803 | 0.0258
LRPPRC_P42704_380_EDGPSVFGSFFLQHCVTMNTPVEK (UniProt P42704) | 0.0471 | 0.322
LIN9_Q5TKA1_176_CSSAFFEEER (UniProt Q5TKA1) | -0.18 | -0.143
LTN1_O94822_723_ACPSSDK (UniProt O94822) | 0.117 | -0.394
LRRC41_Q15345_123_TRPSSLESVTCWR (UniProt Q15345) | -0.327 | -0.356
LSM7_Q9UK45_76_QLGLVVCR (UniProt Q9UK45) | 0.319 | 0.0239
LRRC58_Q96CX6_296_YLGSASNCPNPK (UniProt Q96CX6) | -0.199 | -0.574

Target | probe-labelled cysteine peptide fold change (10 µM) | probe-labelled cysteine peptide fold change (50 µM)
LETM1_O95202_379_ELQAACR (UniProt O95202) | 0.149 | 0.0896
LRCH3_Q96II8_148_NQLSTLPVHLCNLPLK (UniProt Q96II8) | 0.138 | 0.0632
LIPE_Q05469_382_CCLAHLLHK (UniProt Q05469) | -0.0718 | -0.347
LPXN_O60711_199_SGLAYCPNDYHQLFSPR (UniProt O60711) | 0.00976 | -0.00891
LRRC41_Q15345_170_QLTICNMLQGATELVAEPNRR (UniProt Q15345) | -0.0651 | -0.636
LGALS3BP_Q08380_561_STSSFPCPAGHFNGFR (UniProt Q08380) | -0.203 | -0.0213
LPIN1_Q14693_843_LCEVVDHVFPLLK (UniProt Q14693) | -0.0162 | 0.00701
LPP_Q93052_499+502_AYHPHCFTCVMCHR (UniProt Q93052) | 0.182 | 0.227
LRPPRC_P42704_721_AKYESDMVTGGYAALINLCCR (UniProt P42704) | 0.0495 | -0.146
LRRC47_Q8N1G4_390_GPLLYCARPPQDLK (UniProt Q8N1G4) | -0.0714 | -0.133
LTN1_O94822_1131_ESFFPLTEGNLHTIQSLCPFLSK (UniProt O94822) | -0.093 | -0.225
LRPPRC_P42704_863_IHDVLCK (UniProt P42704) | 0.0747 | 0.0539
LIG1_P18858_719_DSCEGLMVK (UniProt P18858) | -0.135 | -0.04
LPIN2_Q92539_322_DASMEDTVCTIVKPK (UniProt Q92539) | -0.301 | -0.497
LRCH1_Q9Y2L9_613_VSLHEDLGAALMDGVVLCHLVNHIRPR (UniProt Q9Y2L9) | 0.128 | -0.0555
LPCAT4_Q643R3_304_VMAQALGIPATECEFVGSLPVIVVGR (UniProt Q643R3) | 0.439 | 0.349
LRRC40_Q9H9A6_227_HLDCNSNLLETIPPELAGMESLELLYLRR (UniProt Q9H9A6) | -0.229 | -0.459
LIMK1_P53667_84_YGESCHGCSEQITK (UniProt P53667) | 0.0187 | -0.262
LGALS1_P09382_43_DSNNLCLHFNPR (UniProt P09382) | 0.0679 | 0.0272
LRRC59_Q96AG4_48_ATILDLSCNK (UniProt Q96AG4) | -0.0204 | -0.101
LRRC47_Q8N1G4_190_PGALPLLSELAAADNCLR (UniProt Q8N1G4) | -0.322 | 0.0652

Target | probe-labelled cysteine peptide fold change (10 µM) | probe-labelled cysteine peptide fold change (50 µM)
LRRC58_Q96CX6_131_SLQVLNLSGNCFQEVPASLLELR (UniProt Q96CX6) | 0.0351 | -0.219
LSS_P48449_410_MQGTNGSQIWDTAFAIQALLEAGGHHRPEFSSCLQK (UniProt P48449) | 0.182 | 0.215
LIMS1_P48059_278+281_AWCVNCFACSTCNTK (UniProt P48059) | -0.00565 | -0.467
LRWD1_Q9UFC0_281_LEPLHFLQCHSK (UniProt Q9UFC0) | -0.0836 | -0.0432
LGALS9_O00182_102_GMPFDLCFLVQSSDFK (UniProt O00182) | -0.137 | 0.539
LRRC8A_Q8IWT6_768+776_GNRLECLPVELGECPLLK (UniProt Q8IWT6) | -0.106 | -0.0226
LIMK2_P53671_365_CDEETQK (UniProt P53671) | -0.154 | -0.0694
LLGL2_Q6P1M3_280_SLVPYGPFPCK (UniProt Q6P1M3) | -0.15 | 0.0502
LGALS1_P09382_3_ACGLVASNLNLK (UniProt P09382) | 0.0504 | 0.29
LRRFIP1_Q32MZ4_750_CEMSEHPSQTVR (UniProt Q32MZ4) | -0.371 | -0.453
LIMA1_Q9UHB6_164_MENCLGESR (UniProt Q9UHB6) | -0.173 | 0.0626
LRR1_Q96L50_91_LKEPPVDICLSK (UniProt Q96L50) | -0.0559 | -0.245
LIG4_P49917_510_VGSGCTMK (UniProt P49917) | -0.107 | -0.202
LIG3_P49916_336_IFNCNPDDMAR (UniProt P49916) | -0.00595 | 0.141
LRPPRC_P42704_930_CVANNQVETLEK (UniProt P42704) | 0.012 | -0.083
LMNA_P02545_591_TVLCGTCGQPADK (UniProt P02545) | -0.159 | -0.174
LRBA_P50851_2740_TLEGPENCLKPK (UniProt P50851) | -0.0198 | -0.0803
LMAN2L_Q9H0V9_200_DGRPTELGGCTAIVR (UniProt Q9H0V9) | -0.386 | 0.156
LIG3_P49916_729_CAGGHDDATLAR (UniProt P49916) | 0.123 | 0.00897
LRCH4_O75427_224_IPVSFCR (UniProt O75427) | 0.0929 | 0.0728
LONP1_P36776_520_ILCFYGPPGVGK (UniProt P36776) | 0.133 | 0.17

Target | probe-labelled cysteine peptide fold change (10 µM) | probe-labelled cysteine peptide fold change (50 µM)
LPP_Q93052_502_AYHPHCFTCVMCHR (UniProt Q93052) | -0.0768 | 0.18
LRRC41_Q15345_297_CAAALMASR (UniProt Q15345) | -0.357 | -0.525
LIG1_P18858_508_QTFCEVPDLDRIIPVLLEHGLER (UniProt P18858) | -0.0398 | -0.161
LONP1_P36776_682_ALCGLDESK (UniProt P36776) | -0.137 | 0.0146
LRRC8A_Q8IWT6_776_GNRLECLPVELGECPLLK (UniProt Q8IWT6) | 0.113 | -0.161
LRBA_P50851_2820_QLFAYPGCDAGIR (UniProt P50851) | -0.136 | 0.347
LRCH4_O75427_213_LDFSCNR (UniProt O75427) | 0.0491 | -0.112
LSS_P48449_616_ACDFLLSR (UniProt P48449) | -0.236 | -0.0146
LRCH4_O75427_134_NQLSLLPPYICQLPLR (UniProt O75427) | 0.247 | 0.132
LIN9_Q5TKA1_435_CEEEAQEIVR (UniProt Q5TKA1) | 0.251 | 0.243
LRRC8A_Q8IWT6_776_LECLPVELGECPLLK (UniProt Q8IWT6) | -0.14 | -0.0991
LRCH1_Q9Y2L9_292_YLSIQACQIK (UniProt Q9Y2L9) | 0.0321 | -0.225
LIMS1_P48059_219_QWHVEHFVCAK (UniProt P48059) | 0.0969 | -0.163
LIG1_P18858_895_QPEQATTSAQVACLYR (UniProt P18858) | -0.0186 | -0.117
LRCH1_Q9Y2L9_421_AEDCEELLR (UniProt Q9Y2L9) | -0.171 | 0.00799
LSS_P48449_700_SCAISYTSYR (UniProt P48449) | -0.0343 | -0.0793
LMAN2_Q12907_107_SKEGSIWNHQPCFLK (UniProt Q12907) | -0.133 | -0.671
LTN1_O94822_1745_KFHSACLYK (UniProt O94822) | -0.157 | -0.376
LRCH1_Q9Y2L9_276_QLQVLLLENNPLQSPPAQICTK (UniProt Q9Y2L9) | -0.13 | -0.0651
LILRB4_Q8NHJ6_144_SVTLLCQSR (UniProt Q8NHJ6) | -0.108 | 0.082
